Assay results from patent US20050043236A1 (published 2005).
No constants are given. Whether binding was seen depends on the method and setting. Some binding calls cover weakened binding; strength is not graded here.

Amino acid sequences for entries named in this document (tags omitted). A change or cut given only in a name is not applied to a line headed by its entry. Chains listed by the source or under a name are the forms on record and can include a tag or linker.
human VEGF165 (P15692-4, form named): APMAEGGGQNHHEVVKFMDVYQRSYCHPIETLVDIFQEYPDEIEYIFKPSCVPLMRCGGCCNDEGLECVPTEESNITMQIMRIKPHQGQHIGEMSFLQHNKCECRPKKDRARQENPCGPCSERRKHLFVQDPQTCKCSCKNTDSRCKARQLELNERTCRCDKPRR

Molecular target: T1, human VEGF165 (human, UniProt P15692-4 27-191)
T1 construct: also called hVEGF165
Assay: summary of Example 2

binding: binds
B1: cleaved VEGF mini-trap (receptor)
chain: SDTGRPFVEMYSEIPEIIHMTEGRELVIPCRVTSPNITVTLKKFPLDTLIPDGKRIIWDSRKGFIISNATYKEIGLLTCEATVNGHLYKTNYLTHRQTNTIIDVVLSPSHGIELSVGEKLVLNCTARTELNVGIDFNWEYPSSKHQHKKLVNRDLKTQSGSEMKKFLSTLTIDGVTRSDQGLYTCAASSGLMTKKNSTFVRVHEKDKTHTCPPCLVPRGS
notes: Product of thrombin digestion of the uncleaved VEGF trap; also called thrombin-cleaved dimeric VEGF mini-trap; truncated trap
